From paper PMC6883508
These are yes or no findings as the source states them, for the method shown. Binding can be weak; no strength is given. Sequences can lack the tags named with a protein.

Target: T1, CUL3a protein from A. thaliana, Gal4 fusion for yeast two-hybrid (A. thaliana) (UniProt Q9ZVH4)
T1 sequence: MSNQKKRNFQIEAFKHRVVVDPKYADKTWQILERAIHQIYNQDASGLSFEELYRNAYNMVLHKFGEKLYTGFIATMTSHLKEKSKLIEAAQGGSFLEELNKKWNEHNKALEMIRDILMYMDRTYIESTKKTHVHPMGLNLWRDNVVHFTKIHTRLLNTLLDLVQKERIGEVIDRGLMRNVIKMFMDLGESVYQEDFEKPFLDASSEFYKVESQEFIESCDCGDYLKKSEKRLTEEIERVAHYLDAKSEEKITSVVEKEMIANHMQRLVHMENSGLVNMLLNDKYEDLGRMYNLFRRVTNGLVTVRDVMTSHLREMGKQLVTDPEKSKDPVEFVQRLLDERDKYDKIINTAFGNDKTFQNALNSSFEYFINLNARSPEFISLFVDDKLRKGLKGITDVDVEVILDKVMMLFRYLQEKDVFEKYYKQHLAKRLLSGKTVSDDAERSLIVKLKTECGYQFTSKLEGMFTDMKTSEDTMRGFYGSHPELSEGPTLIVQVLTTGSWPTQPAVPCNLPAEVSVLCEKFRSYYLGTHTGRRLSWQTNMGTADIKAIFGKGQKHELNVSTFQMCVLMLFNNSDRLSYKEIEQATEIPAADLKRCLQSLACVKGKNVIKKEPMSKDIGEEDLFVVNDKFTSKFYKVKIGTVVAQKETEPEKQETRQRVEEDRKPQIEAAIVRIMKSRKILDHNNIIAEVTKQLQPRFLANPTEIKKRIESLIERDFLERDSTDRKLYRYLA
Experiment: two-hybrid; yeast strain Hfc7; N-terminal Gal4 AD or BD fusions, both orientations; histidine prototrophy on medium lacking Leu, Trp, His with 13 mM 3-AT, and β-galactosidase assay with X-gal; six colonies each

binding: binds
Substance: TaMAB2 (Triticum aestivum MATH-BTB protein 2), Gal4 fusion for yeast two-hybrid
